Reference: article PMC10406883
No constants are given. Whether binding was seen depends on the method and setting. Binding seen in cells or lysates may run through a third protein. Some binding calls cover weakened binding; strength is not graded here.

Protein sequences, listed by entry. Tags and fused reporters are not part of them.
UniProt P08195: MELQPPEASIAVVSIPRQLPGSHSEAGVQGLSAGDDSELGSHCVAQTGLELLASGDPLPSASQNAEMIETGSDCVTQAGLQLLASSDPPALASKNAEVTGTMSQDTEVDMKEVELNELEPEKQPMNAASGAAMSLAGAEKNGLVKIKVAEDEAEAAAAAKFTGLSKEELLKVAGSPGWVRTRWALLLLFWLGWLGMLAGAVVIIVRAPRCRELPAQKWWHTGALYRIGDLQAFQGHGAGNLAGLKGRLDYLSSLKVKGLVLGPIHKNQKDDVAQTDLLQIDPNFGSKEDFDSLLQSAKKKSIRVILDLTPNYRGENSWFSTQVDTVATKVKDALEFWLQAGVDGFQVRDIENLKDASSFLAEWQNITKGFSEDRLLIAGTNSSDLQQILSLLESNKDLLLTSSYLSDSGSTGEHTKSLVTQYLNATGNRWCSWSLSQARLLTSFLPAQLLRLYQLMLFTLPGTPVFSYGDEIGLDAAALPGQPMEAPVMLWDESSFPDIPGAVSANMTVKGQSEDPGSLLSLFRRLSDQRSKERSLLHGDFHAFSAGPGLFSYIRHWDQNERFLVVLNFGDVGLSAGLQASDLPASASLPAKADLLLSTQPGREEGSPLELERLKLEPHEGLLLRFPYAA

Target: 4F2hc (heavy chain subunit of system Xc-, encoded by the SLC3A2 gene), endogenous (human (endogenous in PANC-1)) (UniProt P08195)
Assay: co-IP; PANC-1 cells treated with or without RSL3

B1: glycosyltransferase B3GNT3, endogenous (enzyme, UniProt Q9Y2A9 1-372)
chain: MKYLRHRRPNATLILAIGAFTLLLFSLLVSPPTCKVQEQPPAIPEALAWPTPPTRPAPAPCHANTSMVTHPDFATQPQHVQNFLLYRHCRHFPLLQDVPPSKCAQPVFLLLVIKSSPSNYVRRELLRRTWGRERKVRGLQLRLLFLVGTASNPHEARKVNRLLELEAQTHGDILQWDFHDSFFNLTLKQVLFLQWQETRCANASFVLNGDDDVFAHTDNMVFYLQDHDPGRHLFVGQLIQNVGPIRAFWSKYYVPEVVTQNERYPPYCGGGGFLLSRFTAAALRRAAHVLDIFPIDDVFLGMCLELEGLKPASHSGIRTSGVRAPSQRLSSFDPCFYRDLLLVHRFLPYEMLLMWDALNQPNLTCGNQTQIY
- binding: binds
